The values below come from paper PMC10313362.

Chains of the proteins cited; added tags and fusions are not shown.
UniProt P31749: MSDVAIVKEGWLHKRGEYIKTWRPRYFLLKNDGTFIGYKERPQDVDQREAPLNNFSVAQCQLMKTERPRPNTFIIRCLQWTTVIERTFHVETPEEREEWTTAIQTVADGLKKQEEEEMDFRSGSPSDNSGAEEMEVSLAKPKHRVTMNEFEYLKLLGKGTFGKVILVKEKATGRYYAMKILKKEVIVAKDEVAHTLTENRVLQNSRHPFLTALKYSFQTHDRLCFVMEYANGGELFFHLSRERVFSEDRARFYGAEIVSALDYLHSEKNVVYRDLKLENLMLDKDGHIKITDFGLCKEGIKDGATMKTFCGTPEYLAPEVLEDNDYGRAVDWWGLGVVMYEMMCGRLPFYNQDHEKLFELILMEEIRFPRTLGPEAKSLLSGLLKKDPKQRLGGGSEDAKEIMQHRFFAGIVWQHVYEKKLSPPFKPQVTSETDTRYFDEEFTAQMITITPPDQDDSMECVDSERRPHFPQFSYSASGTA

No constants are given. Whether binding was seen depends on the method and setting. In cells and extracts the contact can be indirect. Some results given as binding are weak or reduced against the parent protein; the word gives no strength.

Assay [1] addresses T1, S100A11 (in SK-Hep1 cells) (UniProt P31949).
T1 sequence: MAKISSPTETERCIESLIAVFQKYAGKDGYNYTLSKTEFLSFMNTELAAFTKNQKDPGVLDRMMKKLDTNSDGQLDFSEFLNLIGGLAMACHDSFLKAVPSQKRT
As to the kind of experiment: co-IP; SK-Hep1 cell lysate (150 mM NaCl, 50 mM Tris pH 7.5, 0.5% NP-40); primary antibody 6-8 h at 4°C, protein A/G magnetic beads, washed with PBST, immunoblot. In general terms: Immunoblotting shows a protein as a band on a membrane.

The target in another assay is T2, S100A11 (UniProt P31949).
T2 sequence: T1 sequence
Kind of assay: co-IP; HEK-293 cell lysate (150 mM NaCl, 50 mM Tris pH 7.5, 0.5% NP-40); primary antibody 6-8 h at 4°C, protein A/G magnetic beads, washed with PBST, immunoblot.

For the substance “AKT1 (in SK-Hep1 cells) (from UniProt P31749 1-480)”, the binding result in assay [1] is “binds”.
Take “AKT1 full-length protein (aa 1-480) (from UniProt P31749 1-480)”: the binding entry with S100A11 is “binds”.
